Results are given in words; binding and its absence hold for the method and conditions named. Some binding calls cover weakened binding; strength is not graded here.
Biological target: 食蟹猴CD47-his蛋白 (Acro biosystems, cat#CD7-C52H1, MW 15.8 kDa) (cynomolgus monkey)
Assay: capture ELISA, antibody captured on anti-mouse Fcγ, biotin-labelled cynomolgus CD47 at 60 nM

B1: 抗人CD47单克隆抗体1A5 (antibody, V domains shown)
VH: EVQLQQSGAELVRSGASVTLSCTASGFNIKDYYMNWVKQRPEQGLEWIGWIGPENGDTENDPRFQGKATMTADTSSNTAFLQLSSLTSEDTAFYYCNAGGRGGFPYWGQGTLVTVST
VL: DILLTQTPLSLPVSLGDQASFSCRSSQNIVHINGKTYLEWYLQKPGQSPKLLIYRVSNRFSGVPDRFSGSGSGTDFTLKISRVEAEDLGVYYCFQGSHVPRTFGGGTKLEIK
binding: binds

— patent CN115703834A
